By UniProt entry, the sequences of proteins in these tests, tags left out. Where a name states a change or a piece, a line headed by the entry shows the natural chain unless it says otherwise.
UniProt Q9BRR9: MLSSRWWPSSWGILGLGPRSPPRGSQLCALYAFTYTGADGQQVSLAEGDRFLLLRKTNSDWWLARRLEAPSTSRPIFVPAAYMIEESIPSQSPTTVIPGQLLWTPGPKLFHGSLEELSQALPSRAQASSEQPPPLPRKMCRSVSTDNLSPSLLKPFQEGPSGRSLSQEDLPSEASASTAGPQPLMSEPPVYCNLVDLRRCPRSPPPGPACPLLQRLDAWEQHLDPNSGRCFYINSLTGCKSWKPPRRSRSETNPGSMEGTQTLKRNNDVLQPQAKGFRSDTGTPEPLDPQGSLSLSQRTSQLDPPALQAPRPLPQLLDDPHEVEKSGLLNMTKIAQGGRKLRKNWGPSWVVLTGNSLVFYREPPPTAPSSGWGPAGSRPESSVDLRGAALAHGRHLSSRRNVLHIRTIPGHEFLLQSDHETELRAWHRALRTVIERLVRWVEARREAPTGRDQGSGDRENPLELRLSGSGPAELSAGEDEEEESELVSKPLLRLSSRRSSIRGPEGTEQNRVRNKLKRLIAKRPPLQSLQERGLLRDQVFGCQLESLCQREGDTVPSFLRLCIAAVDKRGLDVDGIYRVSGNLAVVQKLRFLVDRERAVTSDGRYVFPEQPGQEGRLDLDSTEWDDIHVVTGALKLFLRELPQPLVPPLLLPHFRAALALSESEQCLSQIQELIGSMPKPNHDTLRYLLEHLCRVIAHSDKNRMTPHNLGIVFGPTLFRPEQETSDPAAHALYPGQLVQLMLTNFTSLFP
UniProt Q9NZM3: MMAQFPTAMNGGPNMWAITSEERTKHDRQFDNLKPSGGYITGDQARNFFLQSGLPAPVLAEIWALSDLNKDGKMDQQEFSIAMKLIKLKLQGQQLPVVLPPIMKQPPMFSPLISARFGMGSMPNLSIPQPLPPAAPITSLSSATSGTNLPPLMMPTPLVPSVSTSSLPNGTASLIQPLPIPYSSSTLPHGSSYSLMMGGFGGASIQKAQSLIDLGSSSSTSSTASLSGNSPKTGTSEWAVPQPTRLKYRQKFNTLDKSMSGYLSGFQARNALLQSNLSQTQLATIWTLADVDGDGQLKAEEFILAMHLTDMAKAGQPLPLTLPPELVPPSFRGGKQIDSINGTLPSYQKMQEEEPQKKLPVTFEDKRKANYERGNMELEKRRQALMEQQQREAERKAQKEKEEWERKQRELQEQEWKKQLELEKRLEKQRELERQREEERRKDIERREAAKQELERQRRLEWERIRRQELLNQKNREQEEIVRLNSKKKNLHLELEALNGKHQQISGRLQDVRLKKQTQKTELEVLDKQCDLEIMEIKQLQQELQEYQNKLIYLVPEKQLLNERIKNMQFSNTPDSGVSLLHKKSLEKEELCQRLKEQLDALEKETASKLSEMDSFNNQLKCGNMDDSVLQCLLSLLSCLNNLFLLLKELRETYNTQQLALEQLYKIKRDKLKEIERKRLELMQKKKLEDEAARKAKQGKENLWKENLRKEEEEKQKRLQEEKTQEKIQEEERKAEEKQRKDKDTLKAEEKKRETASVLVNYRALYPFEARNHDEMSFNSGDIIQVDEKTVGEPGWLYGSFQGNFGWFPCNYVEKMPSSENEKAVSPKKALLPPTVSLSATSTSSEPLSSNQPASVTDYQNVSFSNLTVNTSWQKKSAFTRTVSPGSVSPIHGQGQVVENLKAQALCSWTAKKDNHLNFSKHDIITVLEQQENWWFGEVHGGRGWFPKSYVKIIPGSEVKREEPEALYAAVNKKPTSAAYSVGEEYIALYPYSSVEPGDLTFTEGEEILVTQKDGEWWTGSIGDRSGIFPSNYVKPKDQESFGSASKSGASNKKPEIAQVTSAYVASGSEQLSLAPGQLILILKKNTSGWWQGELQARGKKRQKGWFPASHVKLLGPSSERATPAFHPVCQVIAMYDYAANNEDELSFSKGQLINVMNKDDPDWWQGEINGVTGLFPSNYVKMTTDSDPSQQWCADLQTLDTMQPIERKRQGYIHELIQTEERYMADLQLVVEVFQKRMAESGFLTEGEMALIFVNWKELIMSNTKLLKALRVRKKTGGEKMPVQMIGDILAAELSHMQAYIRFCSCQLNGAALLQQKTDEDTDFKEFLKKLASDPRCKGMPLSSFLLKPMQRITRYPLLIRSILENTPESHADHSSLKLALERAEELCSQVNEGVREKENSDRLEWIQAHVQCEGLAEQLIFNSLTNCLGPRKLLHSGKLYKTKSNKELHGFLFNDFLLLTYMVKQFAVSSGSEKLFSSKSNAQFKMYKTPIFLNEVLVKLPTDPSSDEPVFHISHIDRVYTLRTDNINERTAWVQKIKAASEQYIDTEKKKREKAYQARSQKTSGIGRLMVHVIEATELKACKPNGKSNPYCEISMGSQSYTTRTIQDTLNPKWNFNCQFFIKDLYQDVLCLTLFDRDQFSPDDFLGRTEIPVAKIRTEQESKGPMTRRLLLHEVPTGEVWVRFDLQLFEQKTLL
UniProt P46109: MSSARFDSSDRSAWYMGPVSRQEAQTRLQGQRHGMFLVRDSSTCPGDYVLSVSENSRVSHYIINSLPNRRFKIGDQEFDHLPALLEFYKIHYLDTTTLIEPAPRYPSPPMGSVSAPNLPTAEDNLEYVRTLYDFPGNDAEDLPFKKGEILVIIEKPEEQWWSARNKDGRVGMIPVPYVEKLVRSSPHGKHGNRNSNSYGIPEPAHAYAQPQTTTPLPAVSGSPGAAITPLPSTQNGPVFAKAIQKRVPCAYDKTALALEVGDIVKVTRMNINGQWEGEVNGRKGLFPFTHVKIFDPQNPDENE
UniProt P06396: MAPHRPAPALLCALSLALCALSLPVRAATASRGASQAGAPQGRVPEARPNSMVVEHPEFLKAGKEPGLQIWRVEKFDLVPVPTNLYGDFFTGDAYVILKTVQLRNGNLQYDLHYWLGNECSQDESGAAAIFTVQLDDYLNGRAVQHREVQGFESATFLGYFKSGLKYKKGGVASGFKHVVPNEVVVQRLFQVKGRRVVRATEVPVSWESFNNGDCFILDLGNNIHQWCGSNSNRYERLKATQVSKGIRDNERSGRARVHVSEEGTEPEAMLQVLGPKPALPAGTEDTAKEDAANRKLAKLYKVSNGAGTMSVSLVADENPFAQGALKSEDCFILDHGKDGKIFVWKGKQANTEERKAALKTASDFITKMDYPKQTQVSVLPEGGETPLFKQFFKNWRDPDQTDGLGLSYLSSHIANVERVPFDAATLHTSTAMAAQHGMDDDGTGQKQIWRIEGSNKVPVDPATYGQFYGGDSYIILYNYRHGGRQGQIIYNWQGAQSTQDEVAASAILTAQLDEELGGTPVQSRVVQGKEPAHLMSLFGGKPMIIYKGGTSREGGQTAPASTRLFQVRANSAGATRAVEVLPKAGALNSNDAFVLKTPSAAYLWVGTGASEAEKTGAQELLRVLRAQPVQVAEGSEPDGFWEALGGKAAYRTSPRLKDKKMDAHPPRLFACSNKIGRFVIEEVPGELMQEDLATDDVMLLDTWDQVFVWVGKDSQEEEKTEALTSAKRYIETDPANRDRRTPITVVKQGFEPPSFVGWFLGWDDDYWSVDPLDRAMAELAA
UniProt P35241: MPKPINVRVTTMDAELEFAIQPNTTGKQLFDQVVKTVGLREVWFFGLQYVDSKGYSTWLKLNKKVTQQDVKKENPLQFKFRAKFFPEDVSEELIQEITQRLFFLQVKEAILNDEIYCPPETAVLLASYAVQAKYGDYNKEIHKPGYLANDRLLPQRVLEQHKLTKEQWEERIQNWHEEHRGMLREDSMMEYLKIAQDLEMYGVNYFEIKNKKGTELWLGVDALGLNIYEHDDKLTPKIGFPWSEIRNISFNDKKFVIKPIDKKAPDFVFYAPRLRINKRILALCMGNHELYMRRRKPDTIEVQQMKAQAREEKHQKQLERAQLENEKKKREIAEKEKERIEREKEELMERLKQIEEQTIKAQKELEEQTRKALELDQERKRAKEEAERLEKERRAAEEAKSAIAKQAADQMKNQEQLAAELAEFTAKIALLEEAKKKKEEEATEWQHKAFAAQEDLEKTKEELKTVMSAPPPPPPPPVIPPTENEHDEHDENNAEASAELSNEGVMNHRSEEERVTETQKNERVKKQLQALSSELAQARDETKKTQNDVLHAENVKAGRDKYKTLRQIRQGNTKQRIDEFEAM

In article doi:10.1101/354316:

Tests used:
Test in all cases: affinity purification with mass spectrometry
[1] = biological target: ARHGAP9 (not stated (library cDNAs: human, mouse, rat or chimpanzee; Table S1)) (UniProt Q9BRR9)
[2] = biological target: T1, ARHGAP11A (not stated (library cDNAs: human, mouse, rat or chimpanzee; Table S1)) (UniProt Q6P4F7)
T1 sequence: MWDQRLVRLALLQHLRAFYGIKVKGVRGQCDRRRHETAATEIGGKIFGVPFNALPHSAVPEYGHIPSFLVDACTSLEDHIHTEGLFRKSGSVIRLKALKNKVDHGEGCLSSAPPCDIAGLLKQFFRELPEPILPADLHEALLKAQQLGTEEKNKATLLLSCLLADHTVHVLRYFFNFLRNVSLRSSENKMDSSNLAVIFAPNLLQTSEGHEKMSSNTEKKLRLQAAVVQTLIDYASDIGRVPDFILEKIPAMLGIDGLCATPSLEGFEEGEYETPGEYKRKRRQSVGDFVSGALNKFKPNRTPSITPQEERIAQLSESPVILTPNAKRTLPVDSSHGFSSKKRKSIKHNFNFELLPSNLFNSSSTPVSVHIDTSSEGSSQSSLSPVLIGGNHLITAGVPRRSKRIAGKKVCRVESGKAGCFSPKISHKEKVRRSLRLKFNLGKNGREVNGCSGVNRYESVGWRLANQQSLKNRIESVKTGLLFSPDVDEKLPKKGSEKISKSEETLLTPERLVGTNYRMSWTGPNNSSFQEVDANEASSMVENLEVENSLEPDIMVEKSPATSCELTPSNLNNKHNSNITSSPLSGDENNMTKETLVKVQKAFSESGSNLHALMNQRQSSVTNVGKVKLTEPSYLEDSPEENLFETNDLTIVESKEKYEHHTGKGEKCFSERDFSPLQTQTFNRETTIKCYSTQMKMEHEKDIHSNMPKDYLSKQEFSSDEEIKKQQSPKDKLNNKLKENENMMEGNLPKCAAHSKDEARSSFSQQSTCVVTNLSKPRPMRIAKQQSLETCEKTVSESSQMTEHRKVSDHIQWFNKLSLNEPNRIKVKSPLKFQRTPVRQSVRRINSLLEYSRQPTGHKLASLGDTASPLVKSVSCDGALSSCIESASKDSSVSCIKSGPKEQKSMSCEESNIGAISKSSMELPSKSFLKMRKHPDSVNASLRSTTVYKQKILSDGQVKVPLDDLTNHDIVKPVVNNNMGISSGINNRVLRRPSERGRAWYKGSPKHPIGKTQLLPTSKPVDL

[3] = biological target: T2, ARHGEF15 (not stated (library cDNAs: human, mouse, rat or chimpanzee; Table S1)) (UniProt O94989)
T2 sequence: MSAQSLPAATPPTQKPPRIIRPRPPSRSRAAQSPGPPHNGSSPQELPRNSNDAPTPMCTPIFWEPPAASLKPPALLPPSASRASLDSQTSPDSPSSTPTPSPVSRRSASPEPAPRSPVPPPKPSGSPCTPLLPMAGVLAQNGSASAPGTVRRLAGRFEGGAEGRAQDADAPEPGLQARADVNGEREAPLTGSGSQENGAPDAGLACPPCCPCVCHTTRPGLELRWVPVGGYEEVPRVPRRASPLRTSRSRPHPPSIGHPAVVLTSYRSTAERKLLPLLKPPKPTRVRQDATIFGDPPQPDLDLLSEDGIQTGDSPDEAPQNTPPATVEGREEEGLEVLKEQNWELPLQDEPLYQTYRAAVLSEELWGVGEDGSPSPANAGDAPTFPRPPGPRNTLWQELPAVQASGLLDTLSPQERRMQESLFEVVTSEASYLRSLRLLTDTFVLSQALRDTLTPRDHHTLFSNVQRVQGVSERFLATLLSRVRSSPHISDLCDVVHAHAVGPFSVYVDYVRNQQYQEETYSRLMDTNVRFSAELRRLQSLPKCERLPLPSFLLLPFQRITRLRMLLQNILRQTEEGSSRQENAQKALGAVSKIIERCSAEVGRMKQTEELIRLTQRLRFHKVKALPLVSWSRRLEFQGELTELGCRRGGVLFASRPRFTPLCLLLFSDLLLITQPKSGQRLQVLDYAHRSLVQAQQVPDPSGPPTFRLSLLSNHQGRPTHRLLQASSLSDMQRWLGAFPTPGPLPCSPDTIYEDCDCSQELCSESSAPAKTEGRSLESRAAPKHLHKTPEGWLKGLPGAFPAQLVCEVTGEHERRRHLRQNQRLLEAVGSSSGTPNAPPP

[4] = biological target: ITSN2 (not stated (library cDNAs: human, mouse, rat or chimpanzee; Table S1)) (UniProt Q9NZM3)
[5] = biological target: T3, VAV1 (not stated (library cDNAs: human, mouse, rat or chimpanzee; Table S1)) (UniProt P15498)
T3 sequence: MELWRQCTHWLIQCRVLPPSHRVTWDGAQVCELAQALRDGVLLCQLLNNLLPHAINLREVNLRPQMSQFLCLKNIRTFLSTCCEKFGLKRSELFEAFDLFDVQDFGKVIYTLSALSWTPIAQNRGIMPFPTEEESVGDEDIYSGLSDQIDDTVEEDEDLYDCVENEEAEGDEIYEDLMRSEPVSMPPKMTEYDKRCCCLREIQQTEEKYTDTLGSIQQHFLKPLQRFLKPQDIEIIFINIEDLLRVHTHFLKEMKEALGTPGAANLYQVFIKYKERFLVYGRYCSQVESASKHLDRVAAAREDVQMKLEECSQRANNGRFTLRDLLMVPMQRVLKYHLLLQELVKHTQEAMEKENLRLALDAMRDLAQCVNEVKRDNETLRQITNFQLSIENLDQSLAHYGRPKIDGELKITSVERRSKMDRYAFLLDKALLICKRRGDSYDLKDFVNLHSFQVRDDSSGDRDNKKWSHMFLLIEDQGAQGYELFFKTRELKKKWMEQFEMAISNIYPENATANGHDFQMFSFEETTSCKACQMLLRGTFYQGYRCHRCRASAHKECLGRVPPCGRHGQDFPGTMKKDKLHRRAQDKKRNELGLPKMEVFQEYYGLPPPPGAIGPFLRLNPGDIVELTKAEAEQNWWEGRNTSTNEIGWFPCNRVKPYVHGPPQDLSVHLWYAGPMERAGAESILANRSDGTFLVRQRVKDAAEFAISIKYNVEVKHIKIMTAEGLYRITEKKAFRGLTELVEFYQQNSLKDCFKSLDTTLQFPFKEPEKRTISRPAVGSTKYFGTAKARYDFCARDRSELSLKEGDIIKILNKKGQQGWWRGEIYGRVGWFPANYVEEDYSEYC

[6] = biological target: T4, SYDE1 (not stated (library cDNAs: human, mouse, rat or chimpanzee; Table S1)) (UniProt Q6ZW31)
T4 sequence: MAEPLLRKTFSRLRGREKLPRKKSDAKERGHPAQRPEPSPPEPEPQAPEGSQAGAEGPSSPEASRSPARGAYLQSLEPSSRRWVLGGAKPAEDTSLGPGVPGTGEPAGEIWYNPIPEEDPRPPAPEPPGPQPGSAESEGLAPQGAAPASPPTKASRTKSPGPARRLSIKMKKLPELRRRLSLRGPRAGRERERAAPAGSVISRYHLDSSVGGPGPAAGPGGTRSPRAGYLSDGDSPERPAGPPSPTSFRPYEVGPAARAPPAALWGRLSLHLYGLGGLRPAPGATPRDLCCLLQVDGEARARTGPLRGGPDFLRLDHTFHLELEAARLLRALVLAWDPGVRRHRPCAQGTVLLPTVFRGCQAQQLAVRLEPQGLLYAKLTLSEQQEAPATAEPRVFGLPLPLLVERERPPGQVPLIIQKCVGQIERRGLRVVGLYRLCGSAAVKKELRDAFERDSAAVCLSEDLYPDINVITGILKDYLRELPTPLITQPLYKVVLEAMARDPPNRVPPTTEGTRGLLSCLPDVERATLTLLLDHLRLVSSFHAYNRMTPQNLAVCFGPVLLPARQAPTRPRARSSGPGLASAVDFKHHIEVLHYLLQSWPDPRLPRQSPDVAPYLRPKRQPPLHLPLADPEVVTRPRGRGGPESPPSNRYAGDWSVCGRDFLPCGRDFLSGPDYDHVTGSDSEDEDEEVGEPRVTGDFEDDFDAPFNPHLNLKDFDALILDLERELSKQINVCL

Molecule: CRKL (from UniProt P46109 1-303)
- binding [1]: binds

Molecule: Caldesmon (from UniProt Q05682-5)
- binding [2]: binds

Molecule: Gelsolin (from UniProt P06396)
- binding [2]: binds

Molecule: Radixin (from UniProt P35241 1-583)
- binding [3]: binds

Molecule: Vinculin (from UniProt P18206-2)
- binding [4]: binds

B1: FARP2 (protein, UniProt O94887 1-1054)
chain: MGEIEGTYRVLQTAGMRLGAQTPVGVSTLEPGQTLLPRMQEKHLHLRVKLLDNTMEIFDIEPKCDGQVLLTQVWKRLNLVECDYFGMEFQNTQSYWIWLEPMKPIIRQIRRPKNVVLRLAVKFFPPDPGQLQEEYTRYLFALQLKRDLLEERLTCADTTAALLTSHLLQSEIGDYDETLDREHLKVNEYLPGQQHCLEKILEFHQKHVGQTPAESDFQVLEIARKLEMYGIRFHMASDREGTKIQLAVSHMGVLVFQGTTKINTFNWSKVRKLSFKRKRFLIKLHPEVHGPYQDTLEFLLGSRDECKNFWKICVEYHTFFRLLDQPKPKAKAVFFSRGSSFRYSGRTQKQLVDYFKDSGMKRIPYERRHSKTHTSVRALTADLPKQSISFPEGLRTPASPSSANAFYSLSPSTLVPSGLPEFKDSSSSLTDPQVSYVKSPAAERRSGAVAGGPDTPSAQPLGPPALQPGPGLSTKSPQPSPSSRKSPLSLSPAFQVPLGPAEQGSSPLLSPVLSDAGGAGMDCEEPRHKRVPADEAYFIVKEILATERTYLKDLEVITVWFRSAVVKEDAMPATLMTLLFSNIDPIYEFHRGFLREVEQRLALWEGPSKAHTKGSHQRIGDILLRNMRQLKEFTSYFQRHDEVLTELEKATKRCKKLEAVYKEFELQKVCYLPLNTFLLKPIQRLLHYRLLLRRLCGHYSPGHHDYADCHDALKAITEVTTTLQHILIRLENLQKLTELQRDLVGIENLIAPGREFIREGCLHKLTKKGLQQRMFFLFSDMLLYTSKGVAGTSHFRIRGLLPLQGMLVEESDNEWSVPHCFTIYAAQKTIVVAASTRLEKEKWMLDLNSAIQAAKSGGDTAPALPGRTVCTRPPRSPNEVSLEQESEDDARGVRSSLEGHGQHRANTTMHVCWYRNTSVSRADHSAAVENQLSGYLLRKFKNSHGWQKLWVVFTNFCLFFYKTHQDDYPLASLPLLGYSVSIPREADGIHKDYVFKLQFKSHVYFFRAESKYTFERWMEVIQGASSSAGRAPSIVQDGPQPSSGLEGMVRGKEE
- binding [5]: binds

B2: ARHGAP28 (protein, UniProt Q9P2N2 1-729)
chain: MEVEDSGGVVLTAYHSYARAQPPNAESRCAPRAAASHPLSRKSIPRCRRINRMLSNESLHPPAFSRSNSEASVDSASMEDFWREIESIKDSSMGGQEEPPPAEVTPVDEGELEAEWLQDVGLSTLISGDEEEDGKALLSTLTRTQAAAVQKRYHTYTQTMRKKDKQSIRDVRDIFGVSESPPRDTCGNHTNQLDGTKEERELPRVIKTSGSMPDDASLNSTTLSDASQDKEGSFAVPRSDSVAILETIPVLPVHSNGSPEPGQPVQNAISDDDFLEKNIPPEAEELSFEVSYSEMVTEALKRNKLKKSEIKKEDYVLTKFNVQKTRFGLTEAGDLSAEDMKKIRHLSLIELTAFFDAFGIQLKRNKTEKVKGRDNGIFGVPLTVLLDGDRKKDPGVKVPLVLQKFFEKVEESGLESEGIFRLSGCTAKVKQYREELDAKFNADKFKWDKMCHREAAVMLKAFFRELPTSLFPVEYIPAFISLMERGPHVKVQFQALHLMVMALPDANRDAAQALMTFFNKVIANESKNRMSLWNISTVMAPNLFFSRSKHSDYEELLLANTAAHIIRLMLKYQKILWKVPSFLITQVRRMNEATMLLKKQLPSVRKLLRRKTLERETASPKTSKVLQKSPSARRMSDVPEGVIRVHAPLLSKVSMAIQLNNQTKAKDILAKFQYENSHGSSECIKIQNQRLYEIGGNIGEHCLDPDAYILDVYRINPQAEWVIKPQQSS
- binding [6]: binds

These are yes or no findings as the source states them, for the method shown. In cells and extracts the contact can be indirect. A yes stands for co-enrichment or nearness to the bait. Other partners may have been found.
